Results are given in words; binding and its absence hold for the method and conditions named. Some binding calls cover weakened binding; strength is not graded here. Where a sequence is shown, tags or fusion partners need not be part of it.
How the values were obtained:
Assay in all cases: two-hybrid; Gal4 AD (pGADT7) and BD (pGBKT7) fusions co-transformed into AH109 yeast; growth on SCM-Trp-Leu-His (SCM-3) plates against SCM-Trp-Leu (SCM-2)
[1] = biological target: T1, hORC4, yeast two-hybrid fusion (human) (UniProt O43929)
T1 sequence: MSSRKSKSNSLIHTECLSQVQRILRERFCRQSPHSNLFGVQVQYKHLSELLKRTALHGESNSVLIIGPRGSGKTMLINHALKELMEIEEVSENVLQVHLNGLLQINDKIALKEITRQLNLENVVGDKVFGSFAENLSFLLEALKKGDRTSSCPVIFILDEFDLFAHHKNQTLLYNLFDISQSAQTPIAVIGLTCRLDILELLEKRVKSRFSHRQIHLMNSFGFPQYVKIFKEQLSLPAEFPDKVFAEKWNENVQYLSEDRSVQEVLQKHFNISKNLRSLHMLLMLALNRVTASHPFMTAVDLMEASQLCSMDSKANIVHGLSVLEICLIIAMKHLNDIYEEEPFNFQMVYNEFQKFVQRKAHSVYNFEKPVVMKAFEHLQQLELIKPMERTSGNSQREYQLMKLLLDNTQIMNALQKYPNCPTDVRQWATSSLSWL

Sequences of proteins named here, by UniProt entry; tags and fusion partners are left off.
UniProt P49736: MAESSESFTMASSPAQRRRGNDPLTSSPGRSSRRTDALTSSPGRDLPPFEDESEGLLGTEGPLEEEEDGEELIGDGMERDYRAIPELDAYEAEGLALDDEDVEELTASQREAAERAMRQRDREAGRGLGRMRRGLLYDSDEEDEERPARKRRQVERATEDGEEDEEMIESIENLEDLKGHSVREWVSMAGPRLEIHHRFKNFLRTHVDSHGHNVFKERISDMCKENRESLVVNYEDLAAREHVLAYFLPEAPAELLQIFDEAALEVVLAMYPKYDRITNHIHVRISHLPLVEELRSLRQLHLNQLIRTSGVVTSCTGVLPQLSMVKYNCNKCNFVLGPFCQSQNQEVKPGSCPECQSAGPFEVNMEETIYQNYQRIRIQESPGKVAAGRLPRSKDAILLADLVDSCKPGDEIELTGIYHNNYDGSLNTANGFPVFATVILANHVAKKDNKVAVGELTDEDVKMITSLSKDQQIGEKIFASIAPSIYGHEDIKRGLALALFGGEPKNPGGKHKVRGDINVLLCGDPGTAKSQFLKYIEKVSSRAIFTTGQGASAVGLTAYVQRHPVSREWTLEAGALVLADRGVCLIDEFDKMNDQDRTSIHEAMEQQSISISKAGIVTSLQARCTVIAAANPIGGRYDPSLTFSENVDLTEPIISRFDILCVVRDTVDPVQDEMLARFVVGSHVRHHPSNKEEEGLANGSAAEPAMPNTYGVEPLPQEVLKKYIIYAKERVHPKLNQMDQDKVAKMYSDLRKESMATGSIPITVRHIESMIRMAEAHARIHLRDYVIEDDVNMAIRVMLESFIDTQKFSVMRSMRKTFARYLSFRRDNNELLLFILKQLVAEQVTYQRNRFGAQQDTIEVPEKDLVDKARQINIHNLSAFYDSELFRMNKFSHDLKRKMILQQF
UniProt P33993: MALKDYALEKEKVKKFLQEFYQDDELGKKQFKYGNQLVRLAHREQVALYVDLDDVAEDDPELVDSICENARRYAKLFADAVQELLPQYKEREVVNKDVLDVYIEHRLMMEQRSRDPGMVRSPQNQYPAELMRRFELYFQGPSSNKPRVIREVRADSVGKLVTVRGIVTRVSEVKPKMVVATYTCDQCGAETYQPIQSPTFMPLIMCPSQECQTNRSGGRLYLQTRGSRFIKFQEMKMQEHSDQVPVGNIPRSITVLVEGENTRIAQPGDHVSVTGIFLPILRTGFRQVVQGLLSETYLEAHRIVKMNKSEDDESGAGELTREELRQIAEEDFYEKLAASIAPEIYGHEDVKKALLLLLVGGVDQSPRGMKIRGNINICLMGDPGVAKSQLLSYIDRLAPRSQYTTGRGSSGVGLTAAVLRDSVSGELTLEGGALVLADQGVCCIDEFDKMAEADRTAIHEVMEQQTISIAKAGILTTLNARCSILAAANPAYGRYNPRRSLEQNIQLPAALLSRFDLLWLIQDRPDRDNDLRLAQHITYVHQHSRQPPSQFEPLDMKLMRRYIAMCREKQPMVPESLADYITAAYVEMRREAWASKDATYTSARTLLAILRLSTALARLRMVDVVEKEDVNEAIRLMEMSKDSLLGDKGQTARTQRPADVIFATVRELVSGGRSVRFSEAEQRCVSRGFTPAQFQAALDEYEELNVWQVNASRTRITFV

[2] = biological target: T2, hORC1, yeast two-hybrid fusion (human) (UniProt Q13415)
T2 sequence: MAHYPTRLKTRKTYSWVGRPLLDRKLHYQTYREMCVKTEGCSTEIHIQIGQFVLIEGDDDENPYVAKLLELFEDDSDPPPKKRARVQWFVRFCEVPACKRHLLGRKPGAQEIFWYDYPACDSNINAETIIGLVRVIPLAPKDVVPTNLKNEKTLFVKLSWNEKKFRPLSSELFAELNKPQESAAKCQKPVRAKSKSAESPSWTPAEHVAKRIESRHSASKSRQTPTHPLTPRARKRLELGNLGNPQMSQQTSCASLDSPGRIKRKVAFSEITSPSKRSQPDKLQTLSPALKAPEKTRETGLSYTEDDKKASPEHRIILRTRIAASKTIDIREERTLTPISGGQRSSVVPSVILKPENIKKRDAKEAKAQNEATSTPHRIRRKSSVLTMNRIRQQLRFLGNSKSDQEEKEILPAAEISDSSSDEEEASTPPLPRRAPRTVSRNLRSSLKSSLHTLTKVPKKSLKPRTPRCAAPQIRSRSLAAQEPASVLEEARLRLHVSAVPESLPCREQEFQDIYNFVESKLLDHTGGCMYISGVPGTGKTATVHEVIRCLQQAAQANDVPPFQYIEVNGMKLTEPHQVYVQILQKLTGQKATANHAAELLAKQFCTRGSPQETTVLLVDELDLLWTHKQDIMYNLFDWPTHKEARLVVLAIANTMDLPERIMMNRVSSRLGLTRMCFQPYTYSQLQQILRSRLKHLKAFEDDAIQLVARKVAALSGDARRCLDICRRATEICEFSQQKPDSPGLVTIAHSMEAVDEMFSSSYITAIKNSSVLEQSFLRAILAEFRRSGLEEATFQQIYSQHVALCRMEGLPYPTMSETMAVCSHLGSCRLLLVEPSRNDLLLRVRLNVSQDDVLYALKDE

[3] = biological target: hMCM2, yeast two-hybrid fusion (human) (UniProt P49736)
[4] = biological target: hMCM7, yeast two-hybrid fusion (human) (UniProt P33993)
[5] = biological target: T3, hORC2, yeast two-hybrid fusion (human) (UniProt Q13416)
T3 sequence: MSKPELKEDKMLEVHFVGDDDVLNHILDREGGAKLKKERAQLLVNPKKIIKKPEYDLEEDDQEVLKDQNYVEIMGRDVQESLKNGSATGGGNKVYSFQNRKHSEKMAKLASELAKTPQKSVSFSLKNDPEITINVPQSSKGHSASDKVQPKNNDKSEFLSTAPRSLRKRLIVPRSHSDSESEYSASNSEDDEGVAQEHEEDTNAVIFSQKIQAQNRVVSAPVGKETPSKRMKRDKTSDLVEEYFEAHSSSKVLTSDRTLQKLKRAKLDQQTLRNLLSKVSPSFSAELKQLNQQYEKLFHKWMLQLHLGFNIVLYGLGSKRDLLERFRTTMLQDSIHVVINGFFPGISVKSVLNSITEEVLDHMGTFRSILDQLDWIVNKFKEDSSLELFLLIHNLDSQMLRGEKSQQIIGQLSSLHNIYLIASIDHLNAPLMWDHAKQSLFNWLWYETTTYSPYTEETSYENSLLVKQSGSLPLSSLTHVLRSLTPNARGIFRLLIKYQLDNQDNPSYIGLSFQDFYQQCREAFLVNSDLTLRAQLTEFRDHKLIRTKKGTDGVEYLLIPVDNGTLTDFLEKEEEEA

Measured: binding

B1: hIPI3 (WDR18, WD repeat domain 18), yeast two-hybrid fusion (protein, UniProt Q9BV38 1-432)
chain: MAAPMEVAVCTDSAAPMWSCIVWELHSGANLLTYRGGQAGPRGLALLNGEYLLAAQLGKNYISAWELQRKDQLQQKIMCPGPVTCLTASPNGLYVLAGVAESIHLWEVSTGNLLVILSRHYQDVSCLQFTGDSSHFISGGKDCLVLVWSLCSVLQADPSRIPAPRHVWSHHALPITDLHCGFGGPLARVATSSLDQTVKLWEVSSGELLLSVLFDVSIMAVTMDLAEHHMFCGGSEGSIFQVDLFTWPGQRERSFHPEQDAGKVFKGHRNQVTCLSVSTDGSVLLSGSHDETVRLWDVQSKQCIRTVALKGPVTNAAILLAPVSMLSSDFRPSLPLPHFNKHLLGAEHGDEPRHGGLTLRLGLHQQGSEPSYLDRTEQLQAVLCSTMEKSVLGGQDQLRVRVTELEDEVRNLRKINRDLFDFSTRFITRPAK
binds: [1] | [2] | [3] | [4] | [5]

Source: paper PMC4825987
